For at least one compound, name, drawing or mass did not settle the structure.
Molecular target: T1, renin (plasma renin activity of human plasma) (Homo sapiens, UniProt P00797)
T1 construct: Lyophilized human plasma with 0.1% EDTA is obtained from New England Nuclear; tissue New England Nuclear Plasma Renin Activity Control; host or cells: human plasma (lyophilized, reconstituted)
T1 sequence (P00797 67-406): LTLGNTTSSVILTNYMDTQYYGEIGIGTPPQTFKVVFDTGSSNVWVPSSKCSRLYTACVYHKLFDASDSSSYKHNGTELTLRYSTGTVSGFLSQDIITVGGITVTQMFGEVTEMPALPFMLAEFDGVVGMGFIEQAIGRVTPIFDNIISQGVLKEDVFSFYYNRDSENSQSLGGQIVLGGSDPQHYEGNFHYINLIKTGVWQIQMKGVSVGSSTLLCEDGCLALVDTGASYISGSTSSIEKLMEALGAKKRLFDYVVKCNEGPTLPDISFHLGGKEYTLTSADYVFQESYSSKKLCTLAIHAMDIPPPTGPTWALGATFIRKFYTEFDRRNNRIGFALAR
Assay: GAMMACOAT plasma renin activity (PRA) radioimmunoassay, inhibition of angiotensin I generation in reconstituted human plasma
Assay type: biochemical
Conditions: relative to RIP (H-Pro-His-Pro-Phe-His-Phe-Phe-Val-Tyr-Lys-OH) assayed on the same day
Experimental: Lyophilized human plasma with 0.1% EDTA is obtained from New England Nuclear, North Billerica, Mass. 01862 as "Plasma Renin Activity Control". This lyophilized plasma is reconstituted, on the day of the assay, with cold sterile distilled water according to directions on the vial. The plasma renin activity (PRA) of the reconstituted plasma is assayed with "GAMMACOAT [^125 I] Plasma Renin Activity Radioimmunoassay Kit" supplied by Clinical Assays, a Division of Travenol Laboratories, Inc., Cambridge, Mass. 02139. The procedure used with these kits is carried out essentially as described in the literature which accompanies them. […]
In the case of renin inhibitory peptide (RIP), 100 μl of the 4° C. blank is added to a GAMMACOAT tube. […] The tubes are then counted in a gamma counter. The results of the RIP are evaluated with the Rodbard Radioimmunoassay Program and the plasma renin activity (PRA) is expressed as […]. […] In addition to I50 values, relative potencies are also calculated. A relative potency is determined by comparing the I50 of RIP to the I50 of the compound. However, it must be emphasized that relative potencies are calculated from the I50 obtained for RIP on the day the compound is assayed and not from the average I50 for RIP. […]

In the case of `CC[C@H](C)[C@H](NC(=O)C(F)(F)C(=O)C(CC(C)C)NC(=O)[C@H](Cc1c[nH]cn1)NC(=O)[C@H](Cc1ccccc1)NC(=O)OC(C)(C)C)C(=O)NCc1ccccn1` (stereo partly drawn) [N-tert-butyloxycarbonyl-L-phenylalanyl-L-histidyl-4-amino-2,2-difluoro-4-(2-methylpropyl)-1,3-dioxobutyl-L-isoleucyl-2-pyridylmethylamide], the “relative potency (I50 of RIP compared to I50 of the compound)” value is reported as 6100.

Source: patent publication US4882420A, “Dihalo-statine substituted renin inhibitors” (The Upjohn Company, priority 1986, dated 1989)
